In US20050288488A1, “Ah receptor cDNA and genetically engineered cells for detecting agonists to the Ah receptor” (Northwestern University, priority 1993, published 2005):
These are yes or no findings as the source states them, for the method shown. Some binding calls cover weakened binding; strength is not graded here.

Amino acid sequences for entries named in this document (tags omitted). A change or cut given only in a name is not applied to a line headed by its entry. Chains listed by the source or under a name are the forms on record and can include a tag or linker.
human Ah receptor nuclear translocator (ARNT) (P27540, form named): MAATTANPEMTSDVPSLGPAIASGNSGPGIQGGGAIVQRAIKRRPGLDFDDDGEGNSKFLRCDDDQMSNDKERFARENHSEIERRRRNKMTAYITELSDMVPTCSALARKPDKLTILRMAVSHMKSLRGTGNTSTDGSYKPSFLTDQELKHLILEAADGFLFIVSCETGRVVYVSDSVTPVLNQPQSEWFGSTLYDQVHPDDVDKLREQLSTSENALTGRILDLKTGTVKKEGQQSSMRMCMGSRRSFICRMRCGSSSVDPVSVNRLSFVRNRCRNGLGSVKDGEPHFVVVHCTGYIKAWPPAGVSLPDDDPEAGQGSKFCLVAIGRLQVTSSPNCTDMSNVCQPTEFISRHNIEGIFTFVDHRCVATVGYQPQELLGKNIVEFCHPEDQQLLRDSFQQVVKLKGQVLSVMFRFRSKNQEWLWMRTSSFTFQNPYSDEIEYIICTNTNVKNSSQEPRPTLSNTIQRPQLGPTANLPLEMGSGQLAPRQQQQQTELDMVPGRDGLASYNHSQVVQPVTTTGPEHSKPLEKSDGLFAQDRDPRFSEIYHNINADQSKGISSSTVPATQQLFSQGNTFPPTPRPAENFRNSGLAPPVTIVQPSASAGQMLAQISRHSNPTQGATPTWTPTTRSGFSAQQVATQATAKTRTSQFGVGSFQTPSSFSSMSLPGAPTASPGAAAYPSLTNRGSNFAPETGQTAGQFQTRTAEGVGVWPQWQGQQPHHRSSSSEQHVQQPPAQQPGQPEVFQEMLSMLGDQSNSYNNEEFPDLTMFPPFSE
UniProt P35869: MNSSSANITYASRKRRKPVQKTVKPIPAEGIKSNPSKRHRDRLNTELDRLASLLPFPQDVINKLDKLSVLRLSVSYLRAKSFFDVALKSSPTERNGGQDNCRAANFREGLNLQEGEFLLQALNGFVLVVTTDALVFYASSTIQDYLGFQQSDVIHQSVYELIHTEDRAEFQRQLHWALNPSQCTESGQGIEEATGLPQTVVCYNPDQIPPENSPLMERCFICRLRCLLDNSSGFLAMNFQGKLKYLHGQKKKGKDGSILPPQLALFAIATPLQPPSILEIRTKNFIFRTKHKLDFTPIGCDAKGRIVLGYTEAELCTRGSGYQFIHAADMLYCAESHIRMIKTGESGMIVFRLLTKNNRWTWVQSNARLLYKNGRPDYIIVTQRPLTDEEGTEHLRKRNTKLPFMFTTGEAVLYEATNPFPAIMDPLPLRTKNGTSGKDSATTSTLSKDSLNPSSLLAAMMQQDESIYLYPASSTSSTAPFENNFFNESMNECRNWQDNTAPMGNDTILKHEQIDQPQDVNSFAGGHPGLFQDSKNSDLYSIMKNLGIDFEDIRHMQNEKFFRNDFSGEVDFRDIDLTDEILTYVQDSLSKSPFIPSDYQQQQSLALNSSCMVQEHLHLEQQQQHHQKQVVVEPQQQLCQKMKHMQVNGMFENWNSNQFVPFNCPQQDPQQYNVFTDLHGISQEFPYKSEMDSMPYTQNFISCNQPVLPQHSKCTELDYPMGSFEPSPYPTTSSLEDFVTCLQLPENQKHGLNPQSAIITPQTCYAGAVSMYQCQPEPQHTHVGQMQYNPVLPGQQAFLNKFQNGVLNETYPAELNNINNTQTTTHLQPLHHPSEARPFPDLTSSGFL
UniProt Q8R4S5: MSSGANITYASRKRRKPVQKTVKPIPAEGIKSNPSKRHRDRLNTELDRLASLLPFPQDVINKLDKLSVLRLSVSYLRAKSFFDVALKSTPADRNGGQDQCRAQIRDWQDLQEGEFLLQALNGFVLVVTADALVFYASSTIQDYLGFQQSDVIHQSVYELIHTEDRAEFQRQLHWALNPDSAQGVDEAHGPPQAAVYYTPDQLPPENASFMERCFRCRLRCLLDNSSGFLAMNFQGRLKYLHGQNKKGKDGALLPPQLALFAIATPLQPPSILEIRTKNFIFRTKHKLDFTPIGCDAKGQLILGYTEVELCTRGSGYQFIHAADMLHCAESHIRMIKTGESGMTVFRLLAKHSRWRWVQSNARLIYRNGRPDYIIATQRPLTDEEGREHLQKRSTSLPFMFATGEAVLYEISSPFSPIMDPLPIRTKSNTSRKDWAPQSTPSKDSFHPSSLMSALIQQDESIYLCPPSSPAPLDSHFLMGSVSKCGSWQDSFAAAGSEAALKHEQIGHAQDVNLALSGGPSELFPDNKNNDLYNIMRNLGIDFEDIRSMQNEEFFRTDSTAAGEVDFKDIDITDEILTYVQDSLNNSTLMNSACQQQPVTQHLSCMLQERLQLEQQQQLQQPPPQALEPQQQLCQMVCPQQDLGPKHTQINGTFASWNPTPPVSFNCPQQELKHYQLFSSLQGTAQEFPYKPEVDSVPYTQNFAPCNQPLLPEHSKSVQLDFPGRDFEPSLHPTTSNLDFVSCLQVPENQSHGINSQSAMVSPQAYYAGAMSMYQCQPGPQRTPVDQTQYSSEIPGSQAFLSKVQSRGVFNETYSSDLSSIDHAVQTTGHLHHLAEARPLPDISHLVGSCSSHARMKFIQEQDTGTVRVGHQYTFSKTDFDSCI

Target: human Ah receptor nuclear translocator (ARNT) (human) (UniProt P27540)
Assay: gel shift assay with in vitro translated proteins and 32P-labeled DRE3 oligonucleotide

Substance | binding
human Ah receptor, full length (from phuAhR / pCWhuAHR) (from UniProt P35869 1-848) | binds
murine Ah receptor (Ah^b-1 allele), full length, in vitro translated from pmuAhR (from UniProt Q8R4S5 1-805) | binds
